According to the supplement of paper PMC8728848:
The list shows a part of the results.

Legend:
Assay in all cases: glycan array binding signal (z-score within array); higher = stronger binding
Conditions in all cases: glycan notation: IUPAC condensed, linker removed
Gal(b1-2)Gal = target: Gal(b1-2)Gal
Method in brief: (§1)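 Glycan array data were curated from 3228 arrays in the Consortium for Functional Glycomics database and kept only where the protein sequence was available. Glycan names were converted to IUPAC-condensed notation, and columns mapping to the same glycan were averaged. The binding signal is a within-array Z-score, averaged across arrays of the same protein sequence at different concentrations or buffers and across linkers. Negative Z-scores can be read as non-binding.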

Gal(b1-3)Gal = target: Gal(b1-3)Gal
Method in brief: as §1

Gal(b1-3)Gal(b1-4)GlcNAc = target: Gal(b1-3)Gal(b1-4)GlcNAc
Method in brief: as §1

Gal(b1-3)GalNAc = target: Gal(b1-3)GalNAc
Method in brief: as §1

[1] = target: Gal(b1-3)GalNAc(a1-3)[Fuc(a1-2)]Gal(b1-4)Glc
Method in brief: as §1

[2] = target: Gal(b1-3)GalNAc(a1-3)[Fuc(a1-2)]Gal(b1-4)GlcNAc
Method in brief: as §1

Gal(b1-3)GalNAc(b1-3)Gal = target: Gal(b1-3)GalNAc(b1-3)Gal
Method in brief: as §1

[3] = target: Gal(b1-3)GalNAc(b1-3)Gal(a1-4)Gal(b1-4)Glc
Method in brief: as §1

[4] = target: Gal(b1-3)GalNAc(b1-4)Gal(b1-4)Glc
Method in brief: as §1

[5] = target: Gal(b1-3)GalNAc(b1-4)[Neu5Ac(a2-3)]Gal(b1-4)Glc
Method in brief: as §1

Gal(b1-3)GlcNAc = target: Gal(b1-3)GlcNAc
Method in brief: as §1

[6] = target: Gal(b1-3)GlcNAc(a1-3)Gal(b1-4)GlcNAc
Method in brief: as §1

[7] = target: Gal(b1-3)GlcNAc(a1-6)Gal(b1-4)GlcNAc
Method in brief: as §1

Gal(b1-3)GlcNAc(b1-2)Man = target: Gal(b1-3)GlcNAc(b1-2)Man
Method in brief: as §1

[8] = target: Gal(b1-3)GlcNAc(b1-2)Man(a1-3)[Gal(b1-3)GlcNAc(b1-2)Man(a1-6)]Man(b1-4)GlcNAc(b1-4)GlcNAc
Method in brief: as §1

[9] = target: Gal(b1-3)GlcNAc(b1-2)Man(a1-3)[Gal(b1-3)GlcNAc(b1-2)Man(a1-6)]Man(b1-4)GlcNAc(b1-4)[Fuc(a1-6)]GlcNAc
Method in brief: as §1

[10] = target: Gal(b1-3)GlcNAc(b1-2)Man(a1-3)[GlcNAc(b1-4)][Gal(b1-3)GlcNAc(b1-2)Man(a1-6)]Man(b1-4)GlcNAc(b1-4)GlcNAc
Method in brief: as §1

[11] = target: Gal(b1-3)GlcNAc(b1-2)[Gal(b1-3)GlcNAc(b1-6)]Man(a1-6)[Gal(b1-3)GlcNAc(b1-2)Man(a1-3)]Man(b1-4)GlcNAc(b1-4)GlcNAc
Method in brief: as §1

[12] = target: Gal(b1-3)GlcNAc(b1-3)Gal(b1-3)GlcNAc
Method in brief: as §1

[13] = target: Gal(b1-3)GlcNAc(b1-3)Gal(b1-4)Glc
Method in brief: as §1

[14] = target: Gal(b1-3)GlcNAc(b1-3)Gal(b1-4)GlcNAc
Method in brief: as §1

[15] = target: Gal(b1-3)GlcNAc(b1-3)Gal(b1-4)GlcNAc(b1-2)Man(a1-3)[Gal(b1-3)GlcNAc(b1-3)Gal(b1-4)GlcNAc(b1-2)Man(a1-6)]Man(b1-4)GlcNAc(b1-4)GlcNAc
Method in brief: as §1

[16] = target: Gal(b1-3)GlcNAc(b1-3)Gal(b1-4)GlcNAc(b1-2)[Gal(b1-3)GlcNAc(b1-3)Gal(b1-4)GlcNAc(b1-6)]Man(a1-6)[Gal(b1-3)GlcNAc(b1-3)Gal(b1-4)GlcNAc(b1-2)Man(a1-3)]Man(b1-4)GlcNAc(b1-4)[Fuc(a1-6)]GlcNAc
Method in brief: as §1

[17] = target: Gal(b1-3)GlcNAc(b1-3)Gal(b1-4)GlcNAc(b1-3)Gal(b1-4)GlcNAc(b1-2)[Gal(b1-3)GlcNAc(b1-3)Gal(b1-4)GlcNAc(b1-3)Gal(b1-4)GlcNAc(b1-6)]Man(a1-6)[Gal(b1-3)GlcNAc(b1-3)Gal(b1-4)GlcNAc(b1-3)Gal(b1-4)GlcNAc(b1-2)Man(a1-3)]Man(b1-4)GlcNAc(b1-4)[Fuc(a1-6)]GlcNAc
Method in brief: as §1

[18] = target: Gal(b1-3)GlcNAc(b1-3)Gal(b1-4)GlcNAc(b1-6)[Gal(b1-3)GlcNAc(b1-3)]Gal(b1-4)Glc
Method in brief: as §1

[19] = target: Gal(b1-3)GlcNAc(b1-3)Gal(b1-4)[Fuc(a1-3)]GlcNAc
Method in brief: as §1

[20] = target: Gal(b1-3)GlcNAc(b1-3)Gal(b1-4)[Fuc(a1-3)]GlcNAc(b1-6)[Gal(b1-3)GlcNAc(b1-3)]Gal(b1-4)Glc
Method in brief: as §1

[21] = target: Gal(b1-3)GlcNAc(b1-3)GalNAc
Method in brief: as §1

[22] = target: Gal(b1-3)GlcNAc(b1-6)Gal(b1-4)GlcNAc
Method in brief: as §1

[23] = target: Gal(b1-3)GlcNAc(b1-6)GalNAc
Method in brief: as §1

[24] = target: Gal(b1-3)GlcNAc(b1-6)[Gal(b1-3)]GalNAc
Method in brief: as §1

Gal(b1-3)GlcNAc6S = target: Gal(b1-3)GlcNAc6S
Method in brief: as §1

[25] = target: Gal(b1-3)[Fuc(a1-4)]GlcNAc
Method in brief: as §1

[26] = target: Gal(b1-3)[Fuc(a1-4)]GlcNAc(b1-2)Man
Method in brief: as §1

[27] = target: Gal(b1-3)[Fuc(a1-4)]GlcNAc(b1-2)Man(a1-3)[Gal(b1-3)[Fuc(a1-4)]GlcNAc(b1-2)Man(a1-6)]Man(b1-4)GlcNAc(b1-4)[Fuc(a1-6)]GlcNAc
Method in brief: as §1

[28] = target: Gal(b1-3)[Fuc(a1-4)]GlcNAc(b1-3)Gal(b1-3)[Fuc(a1-4)]GlcNAc
Method in brief: as §1

[29] = target: Gal(b1-3)[Fuc(a1-4)]GlcNAc(b1-3)Gal(b1-4)[Fuc(a1-3)]GlcNAc
Method in brief: as §1

B1: PX14343I-pdi-501-30-501 (Parabacteroides distasonis) (protein)
chain: SDQYSTETFWKTKEHASAGIMGCYNALKLWRSLHTMEFDMLTANAMPYNEANGTQAIGKGEHLSTTALIGSLWKNCYVGIGRTNTFIANVGGVDMDESEKAKMVGEAKFLRAFYYLSLVDKFGGVPLIIDAPNADEQAELPRNSKEEVVNQIVKDLEEAAAVLPDTYASSDLGRATKGAALALKARTLLYNSRWAEAAQAAKQVMESGVYQLFNDYRHFFSEDNKYNCEVIFDIEAKLPEYPTDYDQNIWRLNRPAPLKELVDTYLCVDGKTIEESPLYDPTRPYENRDPRLLKSIVCIGYPYLGKTITKEDVATTGFGVKKYTSYEDDVTIPLVERSAFNFILIRYAEVLLTYAEAQNEASGPDQSVYDAINQLRRRPDINMPEVPKGLTKDQMREVIRRERRIELTFEGLYYSDILRWKTAEKENNGMMHNYEGIEVVKRSFNPKRDYLWPIPYNQTVLNPNLEQNPNWD
glycan array binding signal (z-score) (Gal(b1-2)Gal): -0.923 | glycan array binding signal (z-score) (Gal(b1-3)Gal): 0.268 | glycan array binding signal (z-score) (Gal(b1-3)Gal(b1-4)GlcNAc): -0.375 | glycan array binding signal (z-score) (Gal(b1-3)GalNAc): 0.4 | glycan array binding signal (z-score) [1]: -0.601 | glycan array binding signal (z-score) [2]: 0.822 | glycan array binding signal (z-score) (Gal(b1-3)GalNAc(b1-3)Gal): 0.066 | glycan array binding signal (z-score) [3]: -0.858 | glycan array binding signal (z-score) [4]: -0.713 | glycan array binding signal (z-score) [5]: 0.341 | glycan array binding signal (z-score) (Gal(b1-3)GlcNAc): -0.376 | glycan array binding signal (z-score) [6]: -1.27 | glycan array binding signal (z-score) [7]: -0.41 | glycan array binding signal (z-score) (Gal(b1-3)GlcNAc(b1-2)Man): 1.05 | glycan array binding signal (z-score) [8]: -0.657 | glycan array binding signal (z-score) [9]: 0.589 | glycan array binding signal (z-score) [10]: 0.623 | glycan array binding signal (z-score) [11]: 1.55 | glycan array binding signal (z-score) [12]: -0.385 | glycan array binding signal (z-score) [13]: 0.23 | glycan array binding signal (z-score) [14]: -1.03 | glycan array binding signal (z-score) [15]: 0.741 | glycan array binding signal (z-score) [16]: 1.1 | glycan array binding signal (z-score) [17]: 1.14 | glycan array binding signal (z-score) [18]: 0.989 | glycan array binding signal (z-score) [19]: -0.011 | glycan array binding signal (z-score) [20]: 0.545 | glycan array binding signal (z-score) [21]: 0.367 | glycan array binding signal (z-score) [22]: -0.114 | glycan array binding signal (z-score) [23]: 0.189 | glycan array binding signal (z-score) [24]: -0.404 | glycan array binding signal (z-score) (Gal(b1-3)GlcNAc6S): -0.118 | glycan array binding signal (z-score) [25]: -0.327 | glycan array binding signal (z-score) [26]: 0.532 | glycan array binding signal (z-score) [27]: 1.6 | glycan array binding signal (z-score) [28]: 0.204 | glycan array binding signal (z-score) [29]: 0.906
